From the supplement of paper PMC10849652
The other results are listed elsewhere or left out.

Chains of the proteins cited; added tags and fusions are not shown. Lines headed by an entry give the natural chain unless they say otherwise; changes in a name come on top.
UniProt Q9Y2I8: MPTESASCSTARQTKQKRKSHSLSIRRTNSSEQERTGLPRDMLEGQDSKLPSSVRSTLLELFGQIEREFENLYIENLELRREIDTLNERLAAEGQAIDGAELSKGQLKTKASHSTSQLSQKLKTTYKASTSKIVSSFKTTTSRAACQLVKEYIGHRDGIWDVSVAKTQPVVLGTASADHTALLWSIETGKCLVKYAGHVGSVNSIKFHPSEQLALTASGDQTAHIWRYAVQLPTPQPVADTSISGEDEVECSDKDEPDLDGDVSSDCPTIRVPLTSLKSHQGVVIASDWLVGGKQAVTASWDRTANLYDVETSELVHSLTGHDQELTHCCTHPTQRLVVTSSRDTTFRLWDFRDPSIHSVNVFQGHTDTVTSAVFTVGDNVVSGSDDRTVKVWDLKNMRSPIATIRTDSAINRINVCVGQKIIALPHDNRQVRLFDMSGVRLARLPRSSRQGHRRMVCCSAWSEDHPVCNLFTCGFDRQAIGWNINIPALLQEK
UniProt Q86Y07: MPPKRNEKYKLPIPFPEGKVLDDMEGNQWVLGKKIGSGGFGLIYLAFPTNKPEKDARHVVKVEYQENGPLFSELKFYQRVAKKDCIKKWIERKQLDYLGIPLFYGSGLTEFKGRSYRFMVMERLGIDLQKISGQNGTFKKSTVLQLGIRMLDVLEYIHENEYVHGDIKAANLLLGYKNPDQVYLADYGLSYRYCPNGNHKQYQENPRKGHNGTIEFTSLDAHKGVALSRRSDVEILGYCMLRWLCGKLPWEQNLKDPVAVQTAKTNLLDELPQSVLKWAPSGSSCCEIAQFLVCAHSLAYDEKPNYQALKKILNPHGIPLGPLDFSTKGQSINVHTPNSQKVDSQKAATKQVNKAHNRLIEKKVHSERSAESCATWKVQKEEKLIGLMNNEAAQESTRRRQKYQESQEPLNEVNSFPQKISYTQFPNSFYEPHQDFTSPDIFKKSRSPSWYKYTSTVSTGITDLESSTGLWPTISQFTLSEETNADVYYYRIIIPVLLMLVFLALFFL
UniProt Q96JG6: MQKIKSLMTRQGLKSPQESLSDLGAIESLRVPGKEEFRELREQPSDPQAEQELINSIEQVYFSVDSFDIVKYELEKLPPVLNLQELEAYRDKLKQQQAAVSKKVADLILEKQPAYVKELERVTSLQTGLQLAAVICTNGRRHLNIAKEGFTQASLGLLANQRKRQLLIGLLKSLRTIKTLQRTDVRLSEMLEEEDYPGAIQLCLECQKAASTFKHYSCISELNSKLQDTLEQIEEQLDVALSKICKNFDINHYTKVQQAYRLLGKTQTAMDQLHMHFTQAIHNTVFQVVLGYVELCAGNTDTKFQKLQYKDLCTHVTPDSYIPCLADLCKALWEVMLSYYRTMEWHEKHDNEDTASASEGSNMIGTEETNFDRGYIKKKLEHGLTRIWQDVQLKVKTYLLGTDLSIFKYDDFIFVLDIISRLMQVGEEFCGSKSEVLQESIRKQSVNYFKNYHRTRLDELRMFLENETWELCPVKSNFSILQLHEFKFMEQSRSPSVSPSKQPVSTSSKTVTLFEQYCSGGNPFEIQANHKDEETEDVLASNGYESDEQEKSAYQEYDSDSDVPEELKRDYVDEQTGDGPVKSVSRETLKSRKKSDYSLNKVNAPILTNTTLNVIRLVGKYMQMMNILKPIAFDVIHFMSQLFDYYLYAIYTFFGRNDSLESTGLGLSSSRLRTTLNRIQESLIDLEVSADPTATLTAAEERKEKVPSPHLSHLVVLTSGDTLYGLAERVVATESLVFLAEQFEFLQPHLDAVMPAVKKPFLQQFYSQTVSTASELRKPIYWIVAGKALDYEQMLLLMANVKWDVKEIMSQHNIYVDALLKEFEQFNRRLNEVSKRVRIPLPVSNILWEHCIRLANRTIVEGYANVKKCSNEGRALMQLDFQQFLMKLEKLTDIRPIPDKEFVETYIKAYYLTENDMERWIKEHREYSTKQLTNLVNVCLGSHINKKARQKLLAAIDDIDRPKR
UniProt Q9BUR4: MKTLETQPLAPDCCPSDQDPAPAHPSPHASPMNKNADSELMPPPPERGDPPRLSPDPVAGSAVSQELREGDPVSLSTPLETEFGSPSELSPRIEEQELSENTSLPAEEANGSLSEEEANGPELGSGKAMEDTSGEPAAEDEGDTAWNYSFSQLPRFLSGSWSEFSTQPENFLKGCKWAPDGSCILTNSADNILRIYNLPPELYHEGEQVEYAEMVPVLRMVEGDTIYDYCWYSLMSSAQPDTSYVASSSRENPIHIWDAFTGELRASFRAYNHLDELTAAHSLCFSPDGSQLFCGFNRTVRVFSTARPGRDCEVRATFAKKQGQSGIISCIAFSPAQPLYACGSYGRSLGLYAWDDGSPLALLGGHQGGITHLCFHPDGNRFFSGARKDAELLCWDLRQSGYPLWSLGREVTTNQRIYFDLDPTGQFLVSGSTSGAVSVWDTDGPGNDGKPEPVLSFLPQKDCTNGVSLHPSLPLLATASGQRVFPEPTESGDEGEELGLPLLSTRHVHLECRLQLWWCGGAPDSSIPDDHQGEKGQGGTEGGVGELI
UniProt Q96J92: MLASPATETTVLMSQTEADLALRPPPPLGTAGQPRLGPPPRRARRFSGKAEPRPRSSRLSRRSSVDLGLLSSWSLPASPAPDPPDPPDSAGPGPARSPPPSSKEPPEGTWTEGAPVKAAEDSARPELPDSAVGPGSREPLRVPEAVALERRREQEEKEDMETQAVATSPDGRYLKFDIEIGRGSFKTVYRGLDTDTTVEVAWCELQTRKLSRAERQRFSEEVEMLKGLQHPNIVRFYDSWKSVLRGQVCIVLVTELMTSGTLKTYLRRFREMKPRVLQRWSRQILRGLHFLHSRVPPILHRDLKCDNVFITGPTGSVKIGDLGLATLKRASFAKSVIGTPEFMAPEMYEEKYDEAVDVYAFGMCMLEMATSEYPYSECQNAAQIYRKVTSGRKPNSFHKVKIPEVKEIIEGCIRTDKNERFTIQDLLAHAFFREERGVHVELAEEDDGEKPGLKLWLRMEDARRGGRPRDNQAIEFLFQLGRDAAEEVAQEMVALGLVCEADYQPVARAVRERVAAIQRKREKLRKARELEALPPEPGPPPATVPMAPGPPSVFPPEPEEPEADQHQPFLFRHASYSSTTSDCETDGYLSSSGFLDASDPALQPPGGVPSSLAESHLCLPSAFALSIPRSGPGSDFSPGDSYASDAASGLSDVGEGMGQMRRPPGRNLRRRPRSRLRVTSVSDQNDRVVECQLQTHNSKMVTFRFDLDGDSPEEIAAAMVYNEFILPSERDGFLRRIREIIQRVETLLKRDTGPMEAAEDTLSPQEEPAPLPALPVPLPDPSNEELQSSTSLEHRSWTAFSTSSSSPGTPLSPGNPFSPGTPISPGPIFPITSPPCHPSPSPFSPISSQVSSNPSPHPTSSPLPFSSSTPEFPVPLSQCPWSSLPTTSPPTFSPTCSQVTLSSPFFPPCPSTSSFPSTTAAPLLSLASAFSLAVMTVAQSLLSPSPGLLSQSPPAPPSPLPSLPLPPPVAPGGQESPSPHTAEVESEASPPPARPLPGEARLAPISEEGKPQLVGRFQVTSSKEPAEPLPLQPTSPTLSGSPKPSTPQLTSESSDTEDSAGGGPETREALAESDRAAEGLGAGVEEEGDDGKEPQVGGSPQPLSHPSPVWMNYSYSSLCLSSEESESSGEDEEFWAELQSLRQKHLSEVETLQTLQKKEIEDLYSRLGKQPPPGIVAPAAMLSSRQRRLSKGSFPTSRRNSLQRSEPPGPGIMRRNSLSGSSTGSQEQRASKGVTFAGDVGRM
UniProt O75717: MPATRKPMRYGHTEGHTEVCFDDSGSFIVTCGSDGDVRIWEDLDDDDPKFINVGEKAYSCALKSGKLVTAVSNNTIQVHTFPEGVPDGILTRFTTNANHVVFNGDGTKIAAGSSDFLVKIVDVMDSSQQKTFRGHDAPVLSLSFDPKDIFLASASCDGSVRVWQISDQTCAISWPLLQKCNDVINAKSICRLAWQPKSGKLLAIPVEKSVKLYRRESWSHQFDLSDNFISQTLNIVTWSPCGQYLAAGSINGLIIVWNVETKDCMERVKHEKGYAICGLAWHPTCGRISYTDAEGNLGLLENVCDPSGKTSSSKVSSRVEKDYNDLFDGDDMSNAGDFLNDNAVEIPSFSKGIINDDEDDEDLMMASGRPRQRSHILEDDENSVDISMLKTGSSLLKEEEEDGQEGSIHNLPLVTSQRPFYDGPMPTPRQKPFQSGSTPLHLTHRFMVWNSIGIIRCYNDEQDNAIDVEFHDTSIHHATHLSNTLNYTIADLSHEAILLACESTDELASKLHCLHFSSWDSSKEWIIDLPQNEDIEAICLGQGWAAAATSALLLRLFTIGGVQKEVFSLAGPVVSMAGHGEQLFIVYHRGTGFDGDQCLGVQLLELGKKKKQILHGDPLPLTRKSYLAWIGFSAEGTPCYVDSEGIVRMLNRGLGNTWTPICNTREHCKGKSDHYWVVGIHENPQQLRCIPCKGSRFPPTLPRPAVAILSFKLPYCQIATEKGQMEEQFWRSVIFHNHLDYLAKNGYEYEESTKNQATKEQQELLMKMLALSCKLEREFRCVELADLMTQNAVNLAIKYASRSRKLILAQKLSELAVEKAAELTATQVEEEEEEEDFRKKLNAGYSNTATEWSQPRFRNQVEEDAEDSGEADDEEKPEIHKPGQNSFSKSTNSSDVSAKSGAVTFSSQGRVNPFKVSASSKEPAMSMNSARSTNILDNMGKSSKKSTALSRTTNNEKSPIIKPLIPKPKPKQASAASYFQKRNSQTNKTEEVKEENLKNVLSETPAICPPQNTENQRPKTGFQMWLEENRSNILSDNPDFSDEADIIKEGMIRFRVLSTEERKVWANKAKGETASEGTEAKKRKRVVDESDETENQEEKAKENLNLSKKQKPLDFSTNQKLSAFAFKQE
UniProt Q6P4I2: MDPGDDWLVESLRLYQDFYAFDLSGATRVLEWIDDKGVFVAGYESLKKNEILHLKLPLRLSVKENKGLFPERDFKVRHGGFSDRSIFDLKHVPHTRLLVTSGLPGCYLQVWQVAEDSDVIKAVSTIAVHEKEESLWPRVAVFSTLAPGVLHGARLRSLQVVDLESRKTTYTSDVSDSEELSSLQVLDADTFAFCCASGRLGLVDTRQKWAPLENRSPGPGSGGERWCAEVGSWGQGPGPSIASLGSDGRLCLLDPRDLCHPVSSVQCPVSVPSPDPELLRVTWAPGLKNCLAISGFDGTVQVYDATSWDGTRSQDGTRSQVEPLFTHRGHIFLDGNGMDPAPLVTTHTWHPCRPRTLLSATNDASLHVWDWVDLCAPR
UniProt Q8N9V3: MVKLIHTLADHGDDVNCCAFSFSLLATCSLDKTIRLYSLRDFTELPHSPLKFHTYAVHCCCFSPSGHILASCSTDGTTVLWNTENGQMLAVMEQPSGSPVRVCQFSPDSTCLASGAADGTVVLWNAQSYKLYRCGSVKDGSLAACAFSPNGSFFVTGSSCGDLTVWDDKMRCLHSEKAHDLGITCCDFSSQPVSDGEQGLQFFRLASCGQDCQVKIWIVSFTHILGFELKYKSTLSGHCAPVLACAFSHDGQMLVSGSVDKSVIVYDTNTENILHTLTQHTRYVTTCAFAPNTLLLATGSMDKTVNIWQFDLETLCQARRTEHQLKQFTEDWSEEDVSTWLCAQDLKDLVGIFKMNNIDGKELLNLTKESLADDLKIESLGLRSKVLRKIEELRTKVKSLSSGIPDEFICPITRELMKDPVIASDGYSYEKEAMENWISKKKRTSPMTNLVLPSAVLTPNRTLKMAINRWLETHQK
UniProt Q5VIR6: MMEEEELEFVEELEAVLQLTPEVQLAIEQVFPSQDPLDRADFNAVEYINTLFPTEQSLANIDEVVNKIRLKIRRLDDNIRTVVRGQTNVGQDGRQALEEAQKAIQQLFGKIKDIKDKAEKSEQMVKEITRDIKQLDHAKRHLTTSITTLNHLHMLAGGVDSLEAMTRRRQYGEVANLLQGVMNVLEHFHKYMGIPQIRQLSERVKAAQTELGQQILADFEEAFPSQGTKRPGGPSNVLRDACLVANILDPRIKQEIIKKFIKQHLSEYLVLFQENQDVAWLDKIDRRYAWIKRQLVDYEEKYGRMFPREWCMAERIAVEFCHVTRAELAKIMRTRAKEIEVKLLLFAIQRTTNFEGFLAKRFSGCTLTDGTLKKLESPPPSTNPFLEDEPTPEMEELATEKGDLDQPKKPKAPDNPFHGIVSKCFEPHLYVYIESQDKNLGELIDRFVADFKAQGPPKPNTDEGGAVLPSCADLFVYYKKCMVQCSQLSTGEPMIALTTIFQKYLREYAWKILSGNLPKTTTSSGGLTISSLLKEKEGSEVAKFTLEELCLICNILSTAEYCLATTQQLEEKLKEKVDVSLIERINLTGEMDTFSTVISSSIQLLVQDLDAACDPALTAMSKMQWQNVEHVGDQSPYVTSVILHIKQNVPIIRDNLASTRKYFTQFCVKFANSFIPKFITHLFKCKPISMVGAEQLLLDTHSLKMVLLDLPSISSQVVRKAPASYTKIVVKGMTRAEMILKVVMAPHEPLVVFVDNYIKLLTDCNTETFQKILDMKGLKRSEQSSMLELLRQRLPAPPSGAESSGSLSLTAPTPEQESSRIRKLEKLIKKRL

Legend:
Test in all cases: log2 fold change, soluble protein after heating vs DMSO (PISA); higher = thermal stabilisation; K562 lysate, 10 uM; active = over 0.2 and 3.5 SD of the protein, either way, in both replicates (recomputed)
erlotinib = compound: C#Cc1cccc(Nc2ncnc3cc(OCCOC)c(OCCOC)cc23)c1 [erlotinib]
Summary of the method: (§1)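 Quantification was by TMTpro 16plex LC-MS/MS with equalised channel sums, applied to the supernatant after 21,000xg for 90 min. Samples were crude K562 extract at 1 mg/mL protein in PBS pH 7.4 with 1 mM MgCl2, treated with 10 μM compound for 30 min, heated for 3 min across 48°C-58°C, pooled and brought to 0.5% NP-40 at 4°C. Values are log-two fold changes in thermal stability relative to solvent controls, from duplicates.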

[1] = compound: C/C(=N\NC(=O)C1=CC(=CC=C1)S(=O)(=O)N2CCOCC2)/C3=C(C=CC(=C3)Cl)O
Summary of the method: as §1

[2] = compound: C1=CC(=CC=C1C2=NC3=C(N2)C=C(C=C3)C(=O)N)OC4=CC=C(C=C4)Cl
Summary of the method: as §1

[3] = compound: C1=CC2=C(C=CC(=C2)/C=C\3/C(=O)NC(=NCC4=CC=CS4)S3)N=C1
Summary of the method: as §1

[4] = compound: C1=CC2=NC=CN=C2C=C1/C=C/3\C(=O)NC(=O)S3
Summary of the method: as §1

[5] = compound: C1=CC=C(C=C1)C2=NC(=C(N2)C3=CC=NC=C3)C4=CC(=C(C=C4)Cl)O
Summary of the method: as §1

[6] = compound: C1=CC=C2C(=C1)C3=NNC4=CC=CC(=C43)C2=O
Summary of the method: as §1

[7] = compound: C1CCN(C1)C(=O)NC2=CC=CC(=C2)NC3=NC=C(C(=N3)NCCC4=CN=CN4)Br
Summary of the method: as §1

[8] = compound: C1CN(CCC1(CC2=CC=C(C=C2)Cl)N)C3=NC=NC4=C3C=CN4
Summary of the method: as §1

IRAK-1-4 Inhibitor I = compound: C1COCCN1CCN2C3=CC=CC=C3N=C2NC(=O)C4=CC(=CC=C4)[N+](=O)[O-] [IRAK-1-4 Inhibitor I]
Summary of the method: as §1

ibrutinib = compound: C=CC(=O)N1CCC[C@@H](n2nc(-c3ccc(Oc4ccccc4)cc3)c3c(N)ncnc32)C1 [ibrutinib]
Summary of the method: as §1

[9] = compound: CC(=O)c1cnc2ccc(-c3cc(Cl)c(O)c(Cl)c3)nc2c1N[C@H]1CC[C@H](CN(C)C)CC1
Summary of the method: as §1

ralimetinib = compound: CC(C)(C)Cn1c(N)nc2ccc(-c3[nH]c(C(C)(C)C)nc3-c3ccc(F)cc3)nc21 [ralimetinib]
Summary of the method: as §1

[10] = compound: CC(C)(O)CC(=O)NCCn1ccc2ncnc(Nc3ccc(Oc4cccc(C(F)(F)F)c4)c(Cl)c3)c21
Summary of the method: as §1

[11] = compound: CC(C)C1=C2N=C(C=C(N2N=C1)NCC3=CC=CC=C3)NCCCCCCN
Summary of the method: as §1

[12] = compound: CC1=C(C(CC(=O)N1)C2=CC=C(C=C2)C(F)(F)F)C(=O)NC3=C(C=C4C(=C3)C=NN4)F
Summary of the method: as §1

[13] = compound: CC1=C(C2=C(C=C1)C(=O)C3=CC=CC=C3N2CCCN)C
Summary of the method: as §1

[14] = compound: CC1=C(C=C(C=C1)NC(=O)C2=CC(=CC=C2)C(C)(C)C#N)NC3=CC4=C(C=C3)N=CN(C4=O)C
Summary of the method: as §1

[15] = compound: CC1=C(C=C(C=C1)NC(=O)C2=CC(=CC=C2)N(C)C)NC(=O)C3=CC=C(C=C3)O
Summary of the method: as §1

[16] = compound: CC1=CC=C(C=C1)SC2=C3C=C(SC3=CN=C2)C(=O)N
Summary of the method: as §1

Measured: log2 fold change

WDR37 isoform 2 (UniProt Q9Y2I8)
inactive: erlotinib 0.024 | [1] 0.082 | [2] -0.033 | [3] 0.001 | [4] -0.045 | [5] 0.018 | [6] 0.014 | [7] -0.056 | [8] -0.028 | IRAK-1-4 Inhibitor I 0.003 | ibrutinib 0.002 | [9] -0.033 | ralimetinib 0.001 | [10] -0.037 | [11] 0.022 | [12] 0.01 | [13] -0.042 | [14] 0.03 | [15] -0.001 | [16] -0.141

VRK2 (UniProt Q86Y07)
inactive: erlotinib 0.04 | [1] 0.039 | [2] 0.113 | [3] -0.058 | [4] -0.056 | [5] 0 | [6] 0.064 | [7] 0.064 | [8] 0.196 | IRAK-1-4 Inhibitor I 0.049 | ibrutinib 0.049 | [9] 0.106 | ralimetinib 0.155 | [10] -0.041 | [11] -0.037 | [12] -0.036 | [13] -0.026 | [14] -0.021 | [15] 0.023 | [16] 0.149

VPS50 (UniProt Q96JG6)
inactive: erlotinib -0.011 | [1] -0.002 | [2] -0.003 | [3] 0.032 | [4] 0.008 | [5] 0.001 | [6] -0.013 | [7] -0.013 | [8] -0.007 | IRAK-1-4 Inhibitor I 0 | ibrutinib -0.057 | [9] 0.013 | ralimetinib -0.006 | [10] 0.007 | [11] -0.078 | [12] 0.013 | [13] 0.027 | [14] 0.061 | [15] -0.001 | [16] -0.004

WDR45 isoform 2 (UniProt Q9Y484)
inactive: erlotinib -0.047 | [1] -0.032 | [2] -0.024 | [3] -0.001 | [4] 0.06 | [5] -0.008 | [6] -0.016 | [7] 0.041 | [8] -0.005 | IRAK-1-4 Inhibitor I -0.012 | ibrutinib 0.018 | [9] 0.014 | ralimetinib 0.13 | [10] 0.111 | [11] -0.008 | [12] 0.014 | [13] 0.028 | [14] -0.04 | [15] -0.014 | [16] -0.036

Quoted at random: 2 entries already listed
WDR37 isoform 2 (UniProt Q9Y2I8)
inactive: erlotinib 0.024 | [1] 0.082 | [2] -0.033 | [3] 0.001 | [4] -0.045 | [5] 0.018 | [6] 0.014 | [7] -0.056 | [8] -0.028 | IRAK-1-4 Inhibitor I 0.003 | ibrutinib 0.002 | [9] -0.033 | ralimetinib 0.001 | [10] -0.037 | [11] 0.022 | [12] 0.01 | [13] -0.042 | [14] 0.03 | [15] -0.001 | [16] -0.141

VPS50 (UniProt Q96JG6)
inactive: erlotinib -0.011 | [1] -0.002 | [2] -0.003 | [3] 0.032 | [4] 0.008 | [5] 0.001 | [6] -0.013 | [7] -0.013 | [8] -0.007 | IRAK-1-4 Inhibitor I 0 | ibrutinib -0.057 | [9] 0.013 | ralimetinib -0.006 | [10] 0.007 | [11] -0.078 | [12] 0.013 | [13] 0.027 | [14] 0.061 | [15] -0.001 | [16] -0.004

Following part.

WRNIP1 (UniProt Q96S55)
inactive: erlotinib 0.019 | [1] -0.128 | [2] -0.014 | [3] -0.024 | [4] -0.005 | [5] 0.003 | [6] -0.064 | [7] 0.028 | [8] 0.023 | IRAK-1-4 Inhibitor I -0.05 | ibrutinib 0.025 | [9] 0.026 | ralimetinib 0.051 | [10] 0.026 | [11] 0.001 | [12] 0.045 | [13] 0.013 | [14] -0.023 | [15] -0.003 | [16] -0.023

WRAP53 (UniProt Q9BUR4)
inactive: erlotinib -0.026 | [1] 0.075 | [2] -0.022 | [3] -0.011 | [4] 0.012 | [5] 0.053 | [6] 0.007 | [7] 0.067 | [8] 0.124 | IRAK-1-4 Inhibitor I 0 | ibrutinib 0.091 | [9] -0.065 | ralimetinib 0.052 | [10] -0.025 | [11] -0.042 | [12] 0.035 | [13] 0.042 | [14] 0.041 | [15] 0.019 | [16] 0.012

WBP11 (UniProt Q9Y2W2)
inactive: erlotinib -0.022 | [1] -0.103 | [2] 0.033 | [3] -0.004 | [4] -0.023 | [5] 0.007 | [6] 0.031 | [7] -0.004 | [8] -0.034 | IRAK-1-4 Inhibitor I -0.002 | ibrutinib 0.028 | [9] 0.027 | ralimetinib 0.01 | [10] -0.022 | [11] 0.009 | [12] -0.018 | [13] 0.02 | [14] 0.041 | [15] -0.01 | [16] 0.01

WNK4 (UniProt Q96J92)
inactive: erlotinib 0.149 | [1] -0.022 | [2] -0.132 | [3] 0.014 | [4] -0.024 | [5] 0.013 | [6] -0.023 | [7] -0.017 | [8] 0.016 | IRAK-1-4 Inhibitor I 0.048 | ibrutinib 0.051 | [9] -0.014 | ralimetinib 0.016 | [10] -0.134 | [11] -0.002 | [12] 0.028 | [13] -0.029 | [14] 0 | [15] -0.008 | [16] -0.022

VKORC1L1, A0A3B3ISV4
inactive: erlotinib 0.065 | [1] -0.121 | [2] -0.057 | [3] 0.022 | [4] 0.043 | [5] -0.018 | [6] 0.084 | [7] -0.02 | [8] -0.041 | IRAK-1-4 Inhibitor I 0.051 | ibrutinib -0.061 | [9] 0.038 | ralimetinib -0.001 | [10] -0.011 | [11] -0.019 | [12] -0.029 | [13] -0.005 | [14] 0.02 | [15] -0.032 | [16] 0.052

WDHD1 (UniProt O75717)
inactive: erlotinib 0.013 | [1] 0.025 | [2] -0.004 | [3] 0.019 | [4] 0.002 | [5] 0.006 | [6] -0.005 | [7] 0 | [8] 0.025 | IRAK-1-4 Inhibitor I -0.017 | ibrutinib 0.024 | [9] -0.002 | ralimetinib 0.005 | [10] -0.01 | [11] -0.027 | [12] 0.007 | [13] -0.002 | [14] -0.002 | [15] 0.016 | [16] -0.005

WDR73 (UniProt Q6P4I2)
inactive: erlotinib 0.002 | [1] -0.005 | [2] 0.037 | [3] -0.03 | [4] 0.038 | [5] -0.004 | [6] 0.006 | [7] -0.008 | [8] -0.03 | IRAK-1-4 Inhibitor I 0.008 | ibrutinib 0.008 | [9] 0.03 | ralimetinib -0.009 | [10] -0.001 | [11] -0.003 | [12] -0.016 | [13] -0.013 | [14] 0.007 | [15] 0.001 | [16] 0.032

VPS4B (UniProt O75351)
inactive: erlotinib -0.008 | [1] -0.009 | [2] -0.048 | [3] -0.006 | [4] -0.007 | [5] 0 | [6] -0.068 | [7] 0.024 | [8] -0.026 | IRAK-1-4 Inhibitor I 0.006 | ibrutinib -0.006 | [9] -0.002 | ralimetinib 0.061 | [10] 0.024 | [11] 0.071 | [12] 0.005 | [13] -0.07 | [14] -0.077 | [15] 0.048 | [16] 0.016

WDSUB1 (UniProt Q8N9V3)
inactive: erlotinib 0.006 | [1] 0.035 | [2] 0.013 | [3] -0.003 | [4] 0.011 | [5] 0.004 | [6] 0.012 | [7] 0.008 | [8] 0.027 | IRAK-1-4 Inhibitor I 0 | ibrutinib -0.004 | [9] -0.008 | ralimetinib -0.027 | [10] -0.017 | [11] -0.009 | [12] -0.054 | [13] 0.004 | [14] 0.02 | [15] -0.014 | [16] -0.04

XPC (UniProt Q01831)
inactive: erlotinib 0.061 | [1] -0.151 | [2] 0.079 | [3] 0.075 | [4] -0.021 | [5] 0.109 | [6] -0.005 | [7] 0.034 | [8] -0.064 | IRAK-1-4 Inhibitor I 0.026 | ibrutinib 0.012 | [9] -0.002 | ralimetinib 0.024 | [10] 0.033 | [11] 0.04 | [12] 0.033 | [13] -0.015 | [14] 0.037 | [15] -0.008 | [16] 0.043

WAPL isoform 3 (UniProt Q7Z5K2)
inactive: erlotinib 0.009 | [1] -0.019 | [2] 0.004 | [3] 0.014 | [4] -0.014 | [5] 0.021 | [6] 0.005 | [7] -0.02 | [8] -0.03 | IRAK-1-4 Inhibitor I -0.002 | ibrutinib 0.01 | [9] -0.009 | ralimetinib 0.016 | [10] 0.049 | [11] -0.017 | [12] 0.192 | [13] -0.011 | [14] 0.031 | [15] 0.015 | [16] -0.015

VPS53 isoform 4 (UniProt Q5VIR6)
inactive: erlotinib 0.023 | [1] 0.022 | [2] 0.033 | [3] 0.001 | [4] -0.001 | [5] -0.037 | [6] -0.033 | [7] 0.034 | [8] -0.017 | IRAK-1-4 Inhibitor I -0.01 | ibrutinib -0.015 | [9] -0.016 | ralimetinib 0.02 | [10] -0.044 | [11] -0.012 | [12] 0.012 | [13] 0.003 | [14] 0.003 | [15] 0.036 | [16] -0.024
